# The supplement of paper PMC3334620
# Whole data set: some 33,000 sequences, median “E-score (-0.5 to 0.5)” near -8e-05, cut for the highest 2% near 0.23. The list shows a part of the results.
# Target: T1, Nrg2 (UniProt P38082)
# T1 sequence: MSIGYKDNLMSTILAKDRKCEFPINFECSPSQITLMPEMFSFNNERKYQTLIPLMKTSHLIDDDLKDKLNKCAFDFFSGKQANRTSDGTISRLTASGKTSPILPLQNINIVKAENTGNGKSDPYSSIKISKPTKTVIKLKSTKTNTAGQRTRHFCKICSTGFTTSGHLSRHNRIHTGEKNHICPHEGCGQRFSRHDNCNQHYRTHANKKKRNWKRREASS
# Test: PBM E-score (8-mer binding enrichment) (E-score (-0.5 to 0.5)); higher = stronger / more preferred TF binding
# Conditions: protein concentration: 100 nM; construct: GST-full length
# How it was run: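 PURExpress in vitro transcription/translation supplied GST-tagged yeast transcription factors, either full-length or DNA-binding domain. Applied at about 100-200 nM to universal all-10-mer Agilent arrays double-stranded by primer extension, the bound protein was detected with fluorescent anti-GST. E-scores, modified Wilcoxon-Mann-Whitney statistics, were given by the Universal PBM Analysis Suite to ungapped eight-base words pooled with their reverse complements after masliner normalisation.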
row,Sequence,PBM E-score
1,AAAGTGAT,0.0508
2,TAGATCAA,0.0306
3,CACATTAA,0.00494
4,CAATCTGG,0.0452
5,GATACCCA,0.0646
6,AACGCTCC,-0.146
7,GACCCACC,0.0431
8,ACTAAAGC,0.00801
9,GCACGATA,0.113
10,AAAGCGTA,-0.104
11,AATTTCGT,0.0935
12,AGATAAAA,0.145
13,AGGAACTC,0.00194
14,GACACATA,0.0156
15,AGTAACGA,0.00247
16,AACGCAGC,0.253
17,AAGGTAGT,0.0492
18,AAGCGACA,0.161
19,CGCTTGAG,-0.0135
20,CACTCACA,0.0997
21,AGGTCCAT,0.137
22,TCGCTAAA,-0.134
23,ACTGTTCA,-0.0219
24,CGATATCA,0.1

row,Sequence,PBM E-score
1,GCCGGTGA,-0.0361
2,AATCGCCG,-0.0476
3,CACCGTCC,-0.0798
4,CCGACACA,0.0282
5,ATTATATA,0.113
6,AGGCCGCA,-0.0941
7,CTGCACAG,-0.0527
8,CGGACTAA,0.0515
9,AGTTTTGC,-0.0161
10,AGGGATGG,0.096
11,TAGCTAAA,-0.119
12,GGGAAGAC,-0.199
13,ACGACGCA,0.132
14,AATCCCCA,0.124
15,CACACCAG,-0.105
16,CTTCGGGC,-0.122
17,GGTACTAC,0.074
18,GCGAAGCA,-0.0741
19,AGTGGCAT,0.0255
20,CCACTAAG,0.0758
21,CGCAGTTC,-0.102
22,AGTAGCCC,-0.0684
23,GGAGGACC,0.038
24,TATTGGGA,0.0355

row,Sequence,PBM E-score
1,AGATTTTA,-0.13
2,AGACTCAG,-0.0651
3,AGGACTGC,-0.277
4,CCCGATTA,0.135
5,CACCGATG,-0.132
6,GAATTCAC,0.0508
7,GTATCCAA,-0.00691
8,TCCAATCA,-0.0087
9,CTCGTTGA,-0.0627
10,AAATTAGA,0.179
11,CCATGTGA,-0.103
12,CACCGGAA,0.105
13,GAAAGTCC,-0.0312
14,ATTGACAG,-0.0166
15,ACCTTTGA,-0.121
16,ACGTCATG,-0.0113
17,ATTACGCG,0.129
18,CGGGTAAC,-0.096
19,ACCAGCGA,-0.0782
20,GCAATCGA,0.0467
21,ATCCTCAA,-0.0476
22,CAGCCGCA,0.0215
23,ACAAGGGT,0.189
24,AGTAGCAC,-0.0195

# A second format for part of the listing above.
row	Sequence	PBM E-score
11	AATTTCGT	0.0935
14	GACACATA	0.0156
16	AACGCAGC	0.253
19	CGCTTGAG	-0.0135
4	CCGACACA	0.0282
6	AGGCCGCA	-0.0941
9	AGTTTTGC	-0.0161
12	GGGAAGAC	-0.199
13	ACGACGCA	0.132
17	GGTACTAC	0.074
22	AGTAGCCC	-0.0684
23	GGAGGACC	0.038
1	AGATTTTA	-0.13
2	AGACTCAG	-0.0651
9	CTCGTTGA	-0.0627
10	AAATTAGA	0.179
12	CACCGGAA	0.105
14	ATTGACAG	-0.0166
23	ACAAGGGT	0.189
24	AGTAGCAC	-0.0195

# Continued.

row,Sequence,PBM E-score
1,TCATGGAA,0.135
2,GGAACTCA,-0.0697
3,ACATGGGT,0.0938
4,TCATAGGA,0.147
5,CTGACCGC,0.105
6,AAGGATAG,-0.0667
7,TAAAGAAA,0.192
8,AGCTACGC,0.0344
9,ACGAACGC,0.267
10,ACGTTAGG,-0.123
11,ACTGAAAA,0.0324
12,ATCACCAG,0.073
13,GGTAGTCA,-0.0996
14,CGCGGATA,0.246
15,CTTAGCTA,-0.0163
16,ACGCCTCG,-0.0727
17,CTTCTCTC,-0.0976
18,GCGTTGTA,0.0316
19,CCATGAAA,0.189
20,CTAGCCAC,-0.25
21,GTGGGCGA,-0.029
22,GTATTCGA,0.0096
